# According to the supplement of paper PMC8728848:
# This is one part of the list.
# B1: a L Fucosidase (Thermotoga maritima) (protein)
# chain: MASMKPRYKPDWESLREHTVPKWFDKAKFGIFIHWGIYSVPGWATPTGELGKVPMDAWFFQNPYAEWYENSLRIKESPTWEYHVKTYGENFEYEKFADLFTAEKWDPQEWADLFKKAGAKYVIPTTKHHDGFCLWGTKYTDFNSVKRGPKRDLVGDLAKAVREAGLRFGVYYSGGLDWRFTTEPIRYPEDLSYIRPNTYEYADYAYKQVMELVDLYLPDVLWNNMGWPEKGKEDLKYLFAYYYNKHPEGSVNDRWGVPHWDFKTAEYHVNYPGDLPGYKWEFTRGIGLSFGYNRNEGPEHMLSVEQLVYTLVDVVSKGGNLLLNVGPKGDGTIPDLQKERLLGLGEWLRKYGDAIYGTSVWERCCAKTEDGTEIRFTRKCNRIFVIFLGIPTGEKIVIEDLNLSAGTVRHFLTGERLSFKNVGKNLEITVPKKLLETDSITLVLEAVEE
# Tests used:
# Test in all cases: glycan array binding signal (z-score within array); higher = stronger binding
# Details in all cases: glycan notation: IUPAC condensed, linker removed; mutation: D224N
# [1] = target: Fuc(a1-3)[Gal(b1-4)]GlcNAc(b1-3)Gal(b1-3)[Fuc(a1-4)]GlcNAc
# Outline: (§1)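 Columns mapping to the same glycan were averaged after glycan names were converted to IUPAC-condensed notation. The data come from 3228 arrays in the Consortium for Functional Glycomics database, limited to those with an available protein sequence. Binding is reported as a within-array Z-score averaged across arrays of one protein sequence and across linkers.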
# [2] = target: Fuc(a1-3)[Gal(b1-4)]GlcNAc(b1-3)Gal(b1-4)[Fuc(a1-3)]GlcNAc
# Outline: as §1
# [3] = target: Fuc(a1-3)[Gal(b1-4)]GlcNAc(b1-3)Gal(b1-4)[Fuc(a1-3)]GlcNAc(b1-3)Gal(b1-4)[Fuc(a1-3)]GlcNAc
# Outline: as §1
# [4] = target: Fuc(a1-3)[Gal(b1-4)]GlcNAc(b1-3)GalNAc
# Outline: as §1
# [5] = target: Fuc(a1-3)[Gal(b1-4)]GlcNAc(b1-6)GalNAc
# Outline: as §1
# [6] = target: Fuc(a1-3)[Gal(b1-4)]GlcNAc(b1-6)[Gal(b1-3)GlcNAc(b1-3)]Gal(b1-4)Glc
# Outline: as §1
# [7] = target: Fuc(a1-3)[Gal(b1-4)]GlcNAc6S
# Outline: as §1
# [8] = target: Fuc(a1-3)[Gal3S(b1-4)]Glc
# Outline: as §1
# [9] = target: Fuc(a1-3)[Gal3S(b1-4)]GlcNAc
# Outline: as §1
# [10] = target: Fuc(a1-3)[Gal3S(b1-4)]GlcNAc6S
# Outline: as §1
# [11] = target: Fuc(a1-3)[GalNAc(b1-4)]GlcNAc
# Outline: as §1
# [12] = target: Fuc(a1-3)[GalNAc(b1-4)]GlcNAc6S
# Outline: as §1
# Fuc(a1-4)GlcNAc = target: Fuc(a1-4)GlcNAc
# Outline: as §1
# Fuc(b1-3)GlcNAc = target: Fuc(b1-3)GlcNAc
# Outline: as §1
# Gal(a1-2)Gal = target: Gal(a1-2)Gal
# Outline: as §1
# Gal(a1-3)Gal = target: Gal(a1-3)Gal
# Outline: as §1
# Gal(a1-3)Gal(b1-3)GlcNAc = target: Gal(a1-3)Gal(b1-3)GlcNAc
# Outline: as §1
# [13] = target: Gal(a1-3)Gal(b1-3)GlcNAc(b1-2)Man
# Outline: as §1
# [14] = target: Gal(a1-3)Gal(b1-3)GlcNAc(b1-2)Man(a1-3)[Gal(a1-3)Gal(b1-3)GlcNAc(b1-2)Man(a1-6)]Man(b1-4)GlcNAc(b1-4)GlcNAc
# Outline: as §1
# [15] = target: Gal(a1-3)Gal(b1-3)GlcNAc(b1-3)GalNAc
# Outline: as §1
# [16] = target: Gal(a1-3)Gal(b1-3)GlcNAc(b1-6)GalNAc
# Outline: as §1
# [17] = target: Gal(a1-3)Gal(b1-3)[Fuc(a1-4)]GlcNAc(b1-2)Man(a1-3)[Gal(a1-3)Gal(b1-3)[Fuc(a1-4)]GlcNAc(b1-2)Man(a1-6)]Man(b1-4)GlcNAc(b1-4)GlcNAc
# Outline: as §1
# Gal(a1-3)Gal(b1-4)Glc = target: Gal(a1-3)Gal(b1-4)Glc
# Outline: as §1
# Gal(a1-3)Gal(b1-4)GlcNAc = target: Gal(a1-3)Gal(b1-4)GlcNAc
# Outline: as §1
# [18] = target: Gal(a1-3)Gal(b1-4)GlcNAc(b1-2)Man
# Outline: as §1
# [19] = target: Gal(a1-3)Gal(b1-4)GlcNAc(b1-2)Man(a1-3)[Gal(a1-3)Gal(b1-4)GlcNAc(b1-2)Man(a1-6)]Man(b1-4)GlcNAc(b1-4)GlcNAc
# Outline: as §1
# [20] = target: Gal(a1-3)Gal(b1-4)GlcNAc(b1-3)GalNAc
# Outline: as §1
# [21] = target: Gal(a1-3)Gal(b1-4)GlcNAc(b1-6)GalNAc
# Outline: as §1
# [22] = target: Gal(a1-3)Gal(b1-4)[Fuc(a1-3)]GlcNAc
# Outline: as §1
# [23] = target: Gal(a1-3)Gal(b1-4)[Fuc(a1-3)]GlcNAc(b1-2)Man(a1-3)[Gal(a1-3)Gal(b1-4)[Fuc(a1-3)]GlcNAc(b1-2)Man(a1-6)]Man(b1-4)GlcNAc(b1-4)GlcNAc
# Outline: as §1
# Gal(a1-3)GalNAc = target: Gal(a1-3)GalNAc
# Outline: as §1
# [24] = target: Gal(a1-3)[Gal(a1-4)]Gal(b1-4)GlcNAc
# Outline: as §1
# [25] = target: Gal(a1-4)Gal(b1-3)GlcNAc(b1-2)Man(a1-3)[Gal(a1-4)Gal(b1-3)GlcNAc(b1-2)Man(a1-6)]Man(b1-4)GlcNAc(b1-4)GlcNAc
# Outline: as §1
# Gal(a1-4)Gal(b1-4)Glc = target: Gal(a1-4)Gal(b1-4)Glc
# Outline: as §1
# Gal(a1-4)Gal(b1-4)GlcNAc = target: Gal(a1-4)Gal(b1-4)GlcNAc
# Outline: as §1
# [26] = target: Gal(a1-4)Gal(b1-4)GlcNAc(b1-2)Man(a1-3)[Gal(a1-4)Gal(b1-4)GlcNAc(b1-2)Man(a1-6)]Man(b1-4)GlcNAc(b1-4)GlcNAc
# Outline: as §1
# [27] = target: Gal(a1-4)Gal(b1-4)GlcNAc(b1-3)Gal(b1-4)Glc
# Outline: as §1
# Gal(a1-4)GlcNAc = target: Gal(a1-4)GlcNAc
# Outline: as §1
binder,measurement,setting,value
B1,glycan array binding signal (z-score),[1],-0.649
same,glycan array binding signal (z-score),[2],0.138
same,glycan array binding signal (z-score),[3],0.062
same,glycan array binding signal (z-score),[4],-0.159
same,glycan array binding signal (z-score),[5],-0.2
same,glycan array binding signal (z-score),[6],0.071
same,glycan array binding signal (z-score),[7],-0.263
same,glycan array binding signal (z-score),[8],-0.258
same,glycan array binding signal (z-score),[9],1.11
same,glycan array binding signal (z-score),[10],0.56
same,glycan array binding signal (z-score),[11],-0.34
same,glycan array binding signal (z-score),[12],0.757
same,glycan array binding signal (z-score),Fuc(a1-4)GlcNAc,0.308
same,glycan array binding signal (z-score),Fuc(b1-3)GlcNAc,-0.708
same,glycan array binding signal (z-score),Gal(a1-2)Gal,-0.446
same,glycan array binding signal (z-score),Gal(a1-3)Gal,-0.173
same,glycan array binding signal (z-score),Gal(a1-3)Gal(b1-3)GlcNAc,-0.912
same,glycan array binding signal (z-score),[13],-0.845
same,glycan array binding signal (z-score),[14],0.731
same,glycan array binding signal (z-score),[15],-0.25
same,glycan array binding signal (z-score),[16],-0.205
same,glycan array binding signal (z-score),[17],0.374
same,glycan array binding signal (z-score),Gal(a1-3)Gal(b1-4)Glc,-0.44
same,glycan array binding signal (z-score),Gal(a1-3)Gal(b1-4)GlcNAc,-0.449
same,glycan array binding signal (z-score),[18],-0.502
same,glycan array binding signal (z-score),[19],0.023
same,glycan array binding signal (z-score),[20],-0.286
same,glycan array binding signal (z-score),[21],-0.814
same,glycan array binding signal (z-score),[22],-0.521
same,glycan array binding signal (z-score),[23],-0.164
same,glycan array binding signal (z-score),Gal(a1-3)GalNAc,-0.41
same,glycan array binding signal (z-score),[24],-0.245
same,glycan array binding signal (z-score),[25],0.497
same,glycan array binding signal (z-score),Gal(a1-4)Gal(b1-4)Glc,0.591
same,glycan array binding signal (z-score),Gal(a1-4)Gal(b1-4)GlcNAc,0.214
same,glycan array binding signal (z-score),[26],1.09
same,glycan array binding signal (z-score),[27],-1.22
same,glycan array binding signal (z-score),Gal(a1-4)GlcNAc,0.12

# Reformatted with bars between the fields: part of the list above.
binder | measurement | setting | value
B1 | glycan array binding signal (z-score) | [3] | 0.062
same | glycan array binding signal (z-score) | [4] | -0.159
same | glycan array binding signal (z-score) | [5] | -0.2
